According to article PMC3789785:
Where two headings read alike, the source gives them in different places. Results are given in words; binding and its absence hold for the method and conditions named. Binding can be weak; no strength is given. For some assays here: Tags and fused reporters may be left off the sequences shown. For some assays here: In cells and extracts the contact can be indirect. One block for each molecule: values may come before it.

Amino acid sequences for entries named in this document (tags omitted). A change or cut given only in a name is not applied to a line headed by its entry.
UniProt Q84UV7: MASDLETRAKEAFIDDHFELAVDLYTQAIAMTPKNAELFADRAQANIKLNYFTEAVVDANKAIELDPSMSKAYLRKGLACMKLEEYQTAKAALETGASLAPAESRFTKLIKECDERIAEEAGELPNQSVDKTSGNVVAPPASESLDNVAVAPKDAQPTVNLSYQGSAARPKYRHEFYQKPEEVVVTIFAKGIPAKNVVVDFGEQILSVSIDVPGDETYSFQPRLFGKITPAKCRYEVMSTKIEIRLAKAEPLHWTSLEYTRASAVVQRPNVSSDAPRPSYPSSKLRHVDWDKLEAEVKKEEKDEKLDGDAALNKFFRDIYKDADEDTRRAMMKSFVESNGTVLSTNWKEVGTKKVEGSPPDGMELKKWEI
UniProt U5HUF9: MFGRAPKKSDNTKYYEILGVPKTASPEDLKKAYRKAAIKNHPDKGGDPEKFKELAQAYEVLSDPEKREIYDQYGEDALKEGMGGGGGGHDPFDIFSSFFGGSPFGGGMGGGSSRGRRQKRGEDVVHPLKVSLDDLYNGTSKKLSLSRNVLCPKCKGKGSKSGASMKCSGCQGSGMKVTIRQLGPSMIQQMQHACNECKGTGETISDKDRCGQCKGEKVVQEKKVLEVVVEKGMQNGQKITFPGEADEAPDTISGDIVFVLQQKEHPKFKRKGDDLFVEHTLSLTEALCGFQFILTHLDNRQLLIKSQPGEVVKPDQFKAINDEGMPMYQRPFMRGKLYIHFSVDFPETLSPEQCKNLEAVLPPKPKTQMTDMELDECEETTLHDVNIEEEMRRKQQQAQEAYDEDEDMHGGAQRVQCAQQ
UniProt U5Q1Q7: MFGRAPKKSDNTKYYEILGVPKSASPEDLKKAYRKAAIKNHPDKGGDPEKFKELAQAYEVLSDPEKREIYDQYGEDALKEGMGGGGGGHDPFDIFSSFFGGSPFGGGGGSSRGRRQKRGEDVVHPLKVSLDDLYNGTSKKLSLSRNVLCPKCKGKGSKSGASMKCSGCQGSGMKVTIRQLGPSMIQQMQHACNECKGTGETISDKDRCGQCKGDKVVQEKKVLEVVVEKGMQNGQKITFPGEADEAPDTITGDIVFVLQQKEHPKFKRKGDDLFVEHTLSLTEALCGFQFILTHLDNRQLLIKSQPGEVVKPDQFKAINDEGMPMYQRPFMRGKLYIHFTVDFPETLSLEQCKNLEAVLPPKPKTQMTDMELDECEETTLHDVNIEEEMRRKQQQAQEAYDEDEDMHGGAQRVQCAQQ
UniProt U5PY93: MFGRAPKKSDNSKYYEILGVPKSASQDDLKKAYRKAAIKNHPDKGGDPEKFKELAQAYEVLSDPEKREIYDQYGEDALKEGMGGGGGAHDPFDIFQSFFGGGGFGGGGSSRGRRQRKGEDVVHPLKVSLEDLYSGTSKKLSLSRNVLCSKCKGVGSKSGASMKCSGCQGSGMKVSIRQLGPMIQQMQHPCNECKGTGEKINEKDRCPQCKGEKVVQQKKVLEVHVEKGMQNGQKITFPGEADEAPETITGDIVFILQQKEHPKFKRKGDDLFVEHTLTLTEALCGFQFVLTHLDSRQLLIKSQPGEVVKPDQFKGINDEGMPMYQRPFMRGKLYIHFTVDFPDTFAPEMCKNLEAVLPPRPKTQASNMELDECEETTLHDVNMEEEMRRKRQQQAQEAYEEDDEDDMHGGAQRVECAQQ
UniProt U5PY20: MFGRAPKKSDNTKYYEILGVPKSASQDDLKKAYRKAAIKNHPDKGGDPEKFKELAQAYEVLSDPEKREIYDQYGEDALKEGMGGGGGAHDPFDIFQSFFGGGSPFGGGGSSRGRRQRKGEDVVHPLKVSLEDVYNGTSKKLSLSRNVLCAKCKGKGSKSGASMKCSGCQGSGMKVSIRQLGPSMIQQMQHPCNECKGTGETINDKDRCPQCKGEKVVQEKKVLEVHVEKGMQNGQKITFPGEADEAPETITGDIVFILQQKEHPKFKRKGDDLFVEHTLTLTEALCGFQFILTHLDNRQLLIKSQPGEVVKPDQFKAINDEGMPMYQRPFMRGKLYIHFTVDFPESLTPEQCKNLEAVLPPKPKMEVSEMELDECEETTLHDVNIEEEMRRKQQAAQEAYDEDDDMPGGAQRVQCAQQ
UniProt U5Q1N6: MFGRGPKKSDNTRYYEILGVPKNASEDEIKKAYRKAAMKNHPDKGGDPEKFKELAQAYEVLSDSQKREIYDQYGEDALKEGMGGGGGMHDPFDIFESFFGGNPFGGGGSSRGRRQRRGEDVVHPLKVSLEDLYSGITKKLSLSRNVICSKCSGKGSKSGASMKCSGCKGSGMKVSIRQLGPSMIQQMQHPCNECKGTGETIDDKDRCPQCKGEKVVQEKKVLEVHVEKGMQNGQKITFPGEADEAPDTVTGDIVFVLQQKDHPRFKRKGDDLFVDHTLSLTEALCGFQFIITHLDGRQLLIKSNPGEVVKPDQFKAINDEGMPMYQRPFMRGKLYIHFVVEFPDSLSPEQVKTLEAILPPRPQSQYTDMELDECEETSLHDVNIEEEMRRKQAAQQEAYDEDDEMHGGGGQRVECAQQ
UniProt U5Q1R1: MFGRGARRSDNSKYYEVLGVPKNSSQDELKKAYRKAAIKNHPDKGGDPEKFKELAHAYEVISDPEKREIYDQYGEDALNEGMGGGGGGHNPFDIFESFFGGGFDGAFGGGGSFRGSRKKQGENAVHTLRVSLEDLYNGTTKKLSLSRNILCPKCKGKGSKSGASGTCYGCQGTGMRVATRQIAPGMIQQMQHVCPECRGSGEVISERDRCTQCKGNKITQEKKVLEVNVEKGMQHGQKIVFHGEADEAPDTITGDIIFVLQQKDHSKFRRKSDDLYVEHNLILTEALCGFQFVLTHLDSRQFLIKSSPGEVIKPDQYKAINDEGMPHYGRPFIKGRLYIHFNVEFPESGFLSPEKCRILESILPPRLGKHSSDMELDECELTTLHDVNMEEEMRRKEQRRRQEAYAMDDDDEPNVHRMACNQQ

Tests used:
[1] = molecular target: BD-NbSGT1 (Nicotiana benthamiana) (UniProt Q84UV7); assay: two-hybrid; LexA DNA binding domain baits and B42 activation domain preys under galactose-inducible promoters; growth on Leu- plates, X-gal on Gal/Raf, beta-galactosidase activity; 28°C for 5 days
[2] = molecular target: T1, BD-Tm-2^2-FL (tomato) (UniProt Q71BG9); assay: as above
T1 sequence: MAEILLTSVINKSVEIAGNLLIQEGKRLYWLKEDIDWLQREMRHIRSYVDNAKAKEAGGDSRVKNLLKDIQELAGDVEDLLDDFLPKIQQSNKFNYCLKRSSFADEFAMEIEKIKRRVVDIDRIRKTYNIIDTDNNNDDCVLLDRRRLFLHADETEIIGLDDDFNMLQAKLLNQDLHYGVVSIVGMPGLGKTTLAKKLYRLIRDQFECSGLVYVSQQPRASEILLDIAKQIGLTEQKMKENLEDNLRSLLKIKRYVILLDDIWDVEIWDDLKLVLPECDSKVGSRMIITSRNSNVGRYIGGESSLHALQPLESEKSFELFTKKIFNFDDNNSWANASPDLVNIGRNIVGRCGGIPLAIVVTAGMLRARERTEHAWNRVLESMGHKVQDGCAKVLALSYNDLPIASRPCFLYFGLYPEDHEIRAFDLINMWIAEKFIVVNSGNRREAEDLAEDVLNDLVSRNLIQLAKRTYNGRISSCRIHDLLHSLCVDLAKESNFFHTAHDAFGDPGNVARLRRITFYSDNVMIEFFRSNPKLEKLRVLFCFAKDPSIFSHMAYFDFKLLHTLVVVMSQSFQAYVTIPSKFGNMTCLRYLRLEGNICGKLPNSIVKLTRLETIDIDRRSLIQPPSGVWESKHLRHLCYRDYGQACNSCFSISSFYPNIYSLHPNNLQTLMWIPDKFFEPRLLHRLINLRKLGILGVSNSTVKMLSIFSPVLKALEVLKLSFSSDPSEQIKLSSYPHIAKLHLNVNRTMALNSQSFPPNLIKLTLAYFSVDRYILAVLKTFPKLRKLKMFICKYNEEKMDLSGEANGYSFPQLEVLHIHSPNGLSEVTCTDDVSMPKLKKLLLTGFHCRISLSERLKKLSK

[3] = molecular target: T2, Tm-2^2-HA (tomato) (UniProt Q71BG9); assay: co-IP; two tagged proteins co-expressed by agroinfiltration in N. benthamiana leaves; lysates at 48 hpi (2 dpi) precipitated with anti-HA; anti-Myc blot; IP buffer 25 mM Tris pH 7.5, 150 mM NaCl, 1 mM EDTA, 10% glycerol, 0.15% NP-40
T2 sequence: T1 sequence

[4] = molecular target: NbSGT1-nLUC (Nicotiana benthamiana) (UniProt Q84UV7); assay: split reporter; firefly luciferase complementation imaging (LCI); nLUC and cLUC fusions co-expressed by agroinfiltration in N. benthamiana leaves; 48-72 hpi; 1 mM luciferin
[5] = molecular target: T3, Tm-2^2-cLUC (tomato) (UniProt Q71BG9); assay: as above
T3 sequence: T1 sequence

[6] = molecular target: BD-NbSGT1 (Nicotiana benthamiana) (UniProt Q84UV7); assay: two-hybrid; LexA DNA binding domain baits and B42 activation domain preys under galactose-inducible promoters; growth on Leu- plates, X-gal on Gal/Raf, beta-galactosidase activity; 28°C for 5 days; remark: listed apart in the source
[7] = molecular target: NbSGT1-HA (Nicotiana benthamiana); assay: co-IP; two tagged proteins co-expressed by agroinfiltration in N. benthamiana leaves; lysates at 48 hpi (2 dpi) precipitated with anti-HA; anti-Myc blot; IP buffer 25 mM Tris pH 7.5, 150 mM NaCl, 1 mM EDTA, 10% glycerol, 0.15% NP-40

- binding [1]: binds
- binding [2]: binds
Molecule: AD-NbMIP1.1a (from UniProt U5HUF9)

- binding [2]: binds
Molecule: AD-NbMIP1.1b (from UniProt U5Q1Q7)

- binding [2]: binds
Molecule: AD-NbMIP1.2 (from UniProt U5PY93)

- binding [2]: binds
Molecule: AD-NbMIP1.3 (from UniProt U5PY20)

- binding [2]: binds
Molecule: AD-NbMIP1.4a (Nicotiana benthamiana)

- binding [2]: binds
Molecule: AD-NbMIP1.4b (from UniProt U5Q1N6)

- binding [2]: no binding
Molecule: AD-NbMIP1L1 (Nicotiana benthamiana)

Molecule: NbMIP1.1a-Myc (Nicotiana benthamiana)
- binding [3]: binds

- binding [4]: binds
Molecule: NbMIP1.1b-cLUC (from UniProt U5Q1Q7)

- binding [4]: binds
Molecule: NbMIP1.2-cLUC (from UniProt U5PY93)

- binding [4]: binds
Molecule: NbMIP1.3-cLUC (from UniProt U5PY20)

- binding [4]: binds
Molecule: NbMIP1.4b-cLUC (from UniProt U5Q1N6)

Molecule: NbMIP1L1-cLUC (from UniProt U5Q1R1)
- binding [4]: binds weakly

- binding [5]: binds
Molecule: nLUC-NbMIP1.1a (from UniProt U5HUF9)

- binding [5]: binds
Molecule: nLUC-NbMIP1.1b (Nicotiana benthamiana)

- binding [5]: binds
Molecule: nLUC-NbMIP1.2 (Nicotiana benthamiana)

- binding [5]: binds
Molecule: nLUC-NbMIP1.3 (Nicotiana benthamiana)

- binding [5]: binds
Molecule: nLUC-NbMIP1.4a (Nicotiana benthamiana)

- binding [5]: binds
Molecule: nLUC-NbMIP1.4b (Nicotiana benthamiana)

- binding [5]: no binding
Molecule: nLUC-NbMIP1L1 (Nicotiana benthamiana)

- binding [6]: binds
B1: AD-Tm-2^2 (protein, UniProt Q71BG9 1-861)
chain: T1 sequence

- binding [7]: binds
B2: Tm-2^2-Myc (protein, UniProt Q71BG9 1-861)
chain: T1 sequence
